# Data from paper PMC3568910, “P2X7 Receptor Activation Induces Reactive Oxygen Species Formation and Cell Death in Murine EOC13 Microglia” (Mediators of Inflammation, 2013).
# Protein sequences, listed by entry. Tags and fused reporters are not part of them.
# UniProt Q9Z1M0, whole entry: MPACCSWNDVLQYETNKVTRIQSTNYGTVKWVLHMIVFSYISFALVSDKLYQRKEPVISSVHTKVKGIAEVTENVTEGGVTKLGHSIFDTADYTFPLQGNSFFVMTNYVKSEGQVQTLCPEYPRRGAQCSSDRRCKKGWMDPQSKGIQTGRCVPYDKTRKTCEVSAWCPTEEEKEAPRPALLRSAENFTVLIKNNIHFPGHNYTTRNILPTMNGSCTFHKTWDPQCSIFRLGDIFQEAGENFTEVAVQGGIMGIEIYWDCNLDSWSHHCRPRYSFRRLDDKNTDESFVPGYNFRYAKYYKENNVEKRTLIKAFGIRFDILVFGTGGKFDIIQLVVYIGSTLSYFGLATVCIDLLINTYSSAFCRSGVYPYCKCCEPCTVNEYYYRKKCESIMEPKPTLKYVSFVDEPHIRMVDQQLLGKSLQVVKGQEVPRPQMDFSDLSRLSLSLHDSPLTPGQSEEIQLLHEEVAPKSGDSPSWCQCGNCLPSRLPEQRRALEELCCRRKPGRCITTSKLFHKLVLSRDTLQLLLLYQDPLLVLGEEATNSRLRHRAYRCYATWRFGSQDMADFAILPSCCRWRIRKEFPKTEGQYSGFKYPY
# A number of entries come with more than one value. The list is limited to them. There may be further records. The values listed for one entry differ for a reason that is not stated; some may be repeats, others may stem from another dose, organism or construct than stated.
# Target: P2X7 (Mus musculus, UniProt Q9Z1M0)
# Test: Fixed-time ethidium+ uptake assay (flow cytometry) in EOC13 microglial cells
# Assay type: cell-based, murine
# Conditions: antagonist 10 μM, 15 min preincubation, 1 mM ATP
structure (smiles),measurement,value
O=C(CC12CC3CC(CC(C3)C1)C2)Nc1cccc2nc(NCCNCCO)ccc12 [AZ10606120],impairment of ATP-induced ethidium+ uptake,100 ± 0% and completely impaired
